The list shows a part of the results.
Tests used:
Assay in all cases: log2 fold change, soluble protein after heating vs DMSO (PISA); higher = thermal stabilisation; K562 cells, 10 uM, 30 min; active = over 0.2 and 3.5 SD of the protein, either way, in both replicates (recomputed)
[1] = compound: COC1=CC=C(C=C1)CN2C=CC3=C2C=C(C=C3)C(=O)NO
Procedure, shortened: (§1)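 Quantification of soluble protein used TMTpro 16plex LC-MS/MS, with channel sums equalised. Samples were the supernatant after 21,000xg for 90 min of pooled aliquots from K562 cells (2×10^6 cells/mL) treated with 10 μM compound for 30 min, heated for 3 min over 48°C-58°C, and extracted in PBS with 0.5% NP-40 at 4°C. Values, from duplicates, describe thermal stability against control samples on a log2 fold-change scale.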

The chains behind the UniProt entries cited, without tags or fusion partners. Where a name states a change or a piece, a line headed by the entry shows the natural chain unless it says otherwise.
UniProt P36776: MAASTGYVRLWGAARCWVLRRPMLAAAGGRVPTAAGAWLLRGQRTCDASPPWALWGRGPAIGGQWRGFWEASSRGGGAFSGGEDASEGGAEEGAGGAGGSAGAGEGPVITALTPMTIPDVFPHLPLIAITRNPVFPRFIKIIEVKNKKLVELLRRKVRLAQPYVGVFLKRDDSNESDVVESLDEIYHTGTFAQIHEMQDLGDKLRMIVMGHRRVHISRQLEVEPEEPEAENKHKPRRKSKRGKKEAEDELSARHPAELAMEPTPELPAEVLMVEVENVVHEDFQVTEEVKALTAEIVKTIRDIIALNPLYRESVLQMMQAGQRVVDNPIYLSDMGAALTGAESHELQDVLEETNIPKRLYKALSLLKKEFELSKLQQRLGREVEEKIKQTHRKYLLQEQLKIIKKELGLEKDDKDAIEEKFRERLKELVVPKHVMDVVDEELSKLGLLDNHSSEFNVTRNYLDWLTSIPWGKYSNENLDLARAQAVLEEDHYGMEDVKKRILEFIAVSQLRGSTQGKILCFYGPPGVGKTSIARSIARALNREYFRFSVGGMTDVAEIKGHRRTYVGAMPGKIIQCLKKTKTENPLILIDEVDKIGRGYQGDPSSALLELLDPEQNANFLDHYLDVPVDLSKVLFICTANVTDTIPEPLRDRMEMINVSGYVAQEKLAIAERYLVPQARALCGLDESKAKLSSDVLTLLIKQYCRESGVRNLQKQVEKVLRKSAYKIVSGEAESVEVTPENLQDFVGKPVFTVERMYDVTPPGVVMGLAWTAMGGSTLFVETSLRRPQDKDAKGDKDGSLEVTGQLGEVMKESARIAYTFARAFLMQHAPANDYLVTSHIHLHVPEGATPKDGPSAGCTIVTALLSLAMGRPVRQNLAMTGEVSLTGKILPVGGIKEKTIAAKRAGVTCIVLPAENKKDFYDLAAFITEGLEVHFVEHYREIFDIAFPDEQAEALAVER
UniProt Q9Y2Q5, whole entry, looked up: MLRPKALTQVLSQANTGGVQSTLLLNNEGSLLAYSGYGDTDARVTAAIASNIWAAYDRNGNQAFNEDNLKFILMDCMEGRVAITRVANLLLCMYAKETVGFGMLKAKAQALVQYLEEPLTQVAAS
UniProt Q68DH5: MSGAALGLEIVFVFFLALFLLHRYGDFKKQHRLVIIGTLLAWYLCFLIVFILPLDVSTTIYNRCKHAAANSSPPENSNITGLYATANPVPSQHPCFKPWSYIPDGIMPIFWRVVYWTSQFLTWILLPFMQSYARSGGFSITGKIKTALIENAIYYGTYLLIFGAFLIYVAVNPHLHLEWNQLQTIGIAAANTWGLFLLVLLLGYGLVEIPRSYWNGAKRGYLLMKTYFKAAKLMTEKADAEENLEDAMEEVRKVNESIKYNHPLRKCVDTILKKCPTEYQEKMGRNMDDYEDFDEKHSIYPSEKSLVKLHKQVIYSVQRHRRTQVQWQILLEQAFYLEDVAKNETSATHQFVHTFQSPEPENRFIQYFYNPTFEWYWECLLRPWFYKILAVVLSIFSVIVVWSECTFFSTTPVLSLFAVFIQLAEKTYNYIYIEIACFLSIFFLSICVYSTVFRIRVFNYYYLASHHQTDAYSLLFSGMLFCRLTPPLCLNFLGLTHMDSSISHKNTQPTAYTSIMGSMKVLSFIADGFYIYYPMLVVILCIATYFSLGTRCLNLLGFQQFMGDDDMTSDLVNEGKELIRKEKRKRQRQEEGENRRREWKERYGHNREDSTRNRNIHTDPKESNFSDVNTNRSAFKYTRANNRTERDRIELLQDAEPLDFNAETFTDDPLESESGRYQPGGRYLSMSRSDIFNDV
UniProt Q8WVP7: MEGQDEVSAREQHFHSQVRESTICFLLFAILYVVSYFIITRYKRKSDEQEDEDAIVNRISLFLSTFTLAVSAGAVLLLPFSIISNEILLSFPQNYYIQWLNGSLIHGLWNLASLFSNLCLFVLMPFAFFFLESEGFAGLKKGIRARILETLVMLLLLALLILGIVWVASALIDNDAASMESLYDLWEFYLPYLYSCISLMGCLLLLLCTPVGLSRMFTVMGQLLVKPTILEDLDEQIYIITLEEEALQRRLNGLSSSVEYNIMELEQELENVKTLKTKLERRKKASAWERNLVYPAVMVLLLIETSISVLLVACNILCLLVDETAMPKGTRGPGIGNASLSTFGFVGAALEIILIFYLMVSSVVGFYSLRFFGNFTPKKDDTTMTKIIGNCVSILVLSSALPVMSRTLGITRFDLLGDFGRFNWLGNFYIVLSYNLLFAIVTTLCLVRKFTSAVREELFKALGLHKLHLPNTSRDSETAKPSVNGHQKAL
UniProt P13796: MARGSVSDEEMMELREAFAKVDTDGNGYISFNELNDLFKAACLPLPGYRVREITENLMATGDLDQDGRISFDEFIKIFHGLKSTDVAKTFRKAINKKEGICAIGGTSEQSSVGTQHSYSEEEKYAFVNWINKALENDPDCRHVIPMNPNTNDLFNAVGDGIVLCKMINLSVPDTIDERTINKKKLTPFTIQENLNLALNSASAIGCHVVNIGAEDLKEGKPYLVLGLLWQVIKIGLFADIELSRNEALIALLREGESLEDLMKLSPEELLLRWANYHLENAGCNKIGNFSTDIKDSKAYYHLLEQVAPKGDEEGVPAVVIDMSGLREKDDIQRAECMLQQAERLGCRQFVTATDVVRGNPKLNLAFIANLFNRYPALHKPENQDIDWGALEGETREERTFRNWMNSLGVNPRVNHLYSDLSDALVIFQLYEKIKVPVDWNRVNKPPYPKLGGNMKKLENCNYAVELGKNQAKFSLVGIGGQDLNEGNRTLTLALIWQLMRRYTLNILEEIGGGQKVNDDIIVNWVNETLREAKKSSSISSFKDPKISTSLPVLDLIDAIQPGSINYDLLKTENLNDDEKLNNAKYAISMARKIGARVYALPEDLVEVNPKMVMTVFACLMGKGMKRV
UniProt Q9Y4W2: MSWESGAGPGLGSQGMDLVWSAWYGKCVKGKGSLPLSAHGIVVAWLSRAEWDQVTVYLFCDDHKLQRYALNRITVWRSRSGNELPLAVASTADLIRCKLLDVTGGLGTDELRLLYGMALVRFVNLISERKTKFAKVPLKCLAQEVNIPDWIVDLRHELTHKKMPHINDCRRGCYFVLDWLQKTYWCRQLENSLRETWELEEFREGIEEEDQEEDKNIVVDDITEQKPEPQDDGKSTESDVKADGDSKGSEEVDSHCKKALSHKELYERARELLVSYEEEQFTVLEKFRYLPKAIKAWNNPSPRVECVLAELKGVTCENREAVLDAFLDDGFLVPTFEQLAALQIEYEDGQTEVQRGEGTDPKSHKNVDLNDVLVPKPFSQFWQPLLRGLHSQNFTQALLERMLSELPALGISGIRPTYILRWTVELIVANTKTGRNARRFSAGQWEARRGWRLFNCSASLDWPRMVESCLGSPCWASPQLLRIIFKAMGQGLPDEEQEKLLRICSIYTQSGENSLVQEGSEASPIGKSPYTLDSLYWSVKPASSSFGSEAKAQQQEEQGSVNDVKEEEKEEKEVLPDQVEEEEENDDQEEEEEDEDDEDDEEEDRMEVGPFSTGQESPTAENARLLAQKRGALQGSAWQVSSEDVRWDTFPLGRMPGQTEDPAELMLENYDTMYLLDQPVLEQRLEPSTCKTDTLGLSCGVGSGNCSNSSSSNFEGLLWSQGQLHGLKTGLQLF
UniProt Q3ZCW2: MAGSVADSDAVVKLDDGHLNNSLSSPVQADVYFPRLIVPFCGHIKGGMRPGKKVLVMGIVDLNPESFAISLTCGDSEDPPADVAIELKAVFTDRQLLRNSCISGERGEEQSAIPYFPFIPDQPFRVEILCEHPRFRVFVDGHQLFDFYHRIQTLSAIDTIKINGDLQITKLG
UniProt Q13094: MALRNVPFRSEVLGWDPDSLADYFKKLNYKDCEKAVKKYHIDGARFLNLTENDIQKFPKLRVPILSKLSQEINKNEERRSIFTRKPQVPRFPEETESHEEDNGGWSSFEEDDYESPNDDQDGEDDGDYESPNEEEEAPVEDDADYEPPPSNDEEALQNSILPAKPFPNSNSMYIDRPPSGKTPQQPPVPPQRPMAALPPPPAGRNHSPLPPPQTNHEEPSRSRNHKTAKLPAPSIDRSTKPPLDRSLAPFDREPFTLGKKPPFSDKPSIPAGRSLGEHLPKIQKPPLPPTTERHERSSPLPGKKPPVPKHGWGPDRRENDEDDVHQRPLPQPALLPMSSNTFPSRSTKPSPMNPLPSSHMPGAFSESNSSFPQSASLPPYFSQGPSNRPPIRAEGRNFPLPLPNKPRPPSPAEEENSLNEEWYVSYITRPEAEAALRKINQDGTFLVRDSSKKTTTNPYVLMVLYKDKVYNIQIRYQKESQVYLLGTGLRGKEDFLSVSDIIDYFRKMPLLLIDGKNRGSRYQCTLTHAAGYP
UniProt Q8NG48: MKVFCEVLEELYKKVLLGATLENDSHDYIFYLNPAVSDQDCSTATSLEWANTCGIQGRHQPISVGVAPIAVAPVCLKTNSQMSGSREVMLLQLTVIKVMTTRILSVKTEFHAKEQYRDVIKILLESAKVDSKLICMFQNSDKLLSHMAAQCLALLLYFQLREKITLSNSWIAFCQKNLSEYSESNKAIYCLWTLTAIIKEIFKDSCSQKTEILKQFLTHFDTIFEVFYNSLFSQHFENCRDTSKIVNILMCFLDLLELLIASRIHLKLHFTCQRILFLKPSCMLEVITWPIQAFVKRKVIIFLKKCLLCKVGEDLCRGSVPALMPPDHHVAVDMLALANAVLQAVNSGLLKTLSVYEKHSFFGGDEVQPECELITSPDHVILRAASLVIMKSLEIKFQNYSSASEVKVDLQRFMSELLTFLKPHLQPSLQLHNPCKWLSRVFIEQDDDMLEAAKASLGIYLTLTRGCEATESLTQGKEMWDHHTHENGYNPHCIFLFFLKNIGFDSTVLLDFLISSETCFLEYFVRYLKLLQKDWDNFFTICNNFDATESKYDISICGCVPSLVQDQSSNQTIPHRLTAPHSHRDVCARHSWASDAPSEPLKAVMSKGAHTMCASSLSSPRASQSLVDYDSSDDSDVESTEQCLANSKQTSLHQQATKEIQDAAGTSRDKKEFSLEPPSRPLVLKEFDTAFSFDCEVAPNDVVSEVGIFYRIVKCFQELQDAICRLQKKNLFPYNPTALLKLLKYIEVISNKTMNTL
UniProt Q9P244: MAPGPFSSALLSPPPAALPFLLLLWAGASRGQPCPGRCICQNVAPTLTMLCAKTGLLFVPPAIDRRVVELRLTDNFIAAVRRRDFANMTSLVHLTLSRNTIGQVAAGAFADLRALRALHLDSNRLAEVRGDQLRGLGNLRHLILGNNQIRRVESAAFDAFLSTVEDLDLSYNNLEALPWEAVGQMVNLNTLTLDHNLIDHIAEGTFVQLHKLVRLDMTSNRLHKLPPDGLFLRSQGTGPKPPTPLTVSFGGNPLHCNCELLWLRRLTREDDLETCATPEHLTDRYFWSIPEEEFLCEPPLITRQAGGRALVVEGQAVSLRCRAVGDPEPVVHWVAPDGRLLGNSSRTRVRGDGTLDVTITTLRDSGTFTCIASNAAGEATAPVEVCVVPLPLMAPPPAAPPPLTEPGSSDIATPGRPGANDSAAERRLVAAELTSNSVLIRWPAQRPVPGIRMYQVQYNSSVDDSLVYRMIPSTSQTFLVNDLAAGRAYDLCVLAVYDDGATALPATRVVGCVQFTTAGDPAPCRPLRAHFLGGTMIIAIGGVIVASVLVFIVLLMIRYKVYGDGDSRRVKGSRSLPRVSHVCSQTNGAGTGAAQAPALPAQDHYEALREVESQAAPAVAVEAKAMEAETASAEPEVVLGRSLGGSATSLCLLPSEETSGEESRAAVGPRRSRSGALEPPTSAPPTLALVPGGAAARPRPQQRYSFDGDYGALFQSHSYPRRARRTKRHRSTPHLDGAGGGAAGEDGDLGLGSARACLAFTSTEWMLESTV
UniProt Q6P1Q0: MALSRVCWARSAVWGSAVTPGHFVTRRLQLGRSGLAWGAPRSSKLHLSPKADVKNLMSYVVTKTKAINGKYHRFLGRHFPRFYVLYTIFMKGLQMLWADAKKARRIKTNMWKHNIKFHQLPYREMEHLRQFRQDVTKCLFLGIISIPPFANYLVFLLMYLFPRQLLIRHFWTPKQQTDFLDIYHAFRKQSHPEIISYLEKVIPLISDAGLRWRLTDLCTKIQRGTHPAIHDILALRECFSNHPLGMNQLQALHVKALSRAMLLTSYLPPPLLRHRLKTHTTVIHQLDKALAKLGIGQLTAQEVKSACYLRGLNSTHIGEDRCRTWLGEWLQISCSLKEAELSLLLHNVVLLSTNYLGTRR
UniProt Q6P5S2: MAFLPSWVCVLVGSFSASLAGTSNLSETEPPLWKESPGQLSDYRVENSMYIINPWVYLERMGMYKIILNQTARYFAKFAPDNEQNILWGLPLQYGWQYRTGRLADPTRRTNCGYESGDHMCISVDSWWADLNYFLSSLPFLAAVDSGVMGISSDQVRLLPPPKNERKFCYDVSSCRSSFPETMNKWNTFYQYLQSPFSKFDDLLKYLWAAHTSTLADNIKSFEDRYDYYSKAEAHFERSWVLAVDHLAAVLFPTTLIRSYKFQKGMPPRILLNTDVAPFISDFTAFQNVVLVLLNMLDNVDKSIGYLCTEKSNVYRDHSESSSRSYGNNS

[2] = compound: CON(C)C(=O)N1N=C(c2cc(F)ccc2F)S[C@@]1(CCCN)c1ccccc1 [filanesib]
Procedure, shortened: as §1

[3] = compound: CO[C@H]1C[C@@H]2CC[C@@H](C)[C@@](O)(O2)C(=O)C(=O)N2CCCC[C@H]2C(=O)O[C@H]([C@H](C)C[C@@H]2CC[C@H](n3cnnn3)[C@H](OC)C2)CC(=O)[C@H](C)/C=C(\C)[C@@H](O)[C@@H](OC)C(=O)[C@H](C)C[C@H](C)/C=C/C=C/C=C/1C [zotarolimus]
Procedure, shortened: as §1

[4] = compound: COc1cc(C(=O)O)ccc1NC(=O)[C@@H]1N[C@@H](CC(C)(C)C)[C@](C#N)(c2ccc(Cl)cc2F)[C@H]1c1cccc(Cl)c1F [idasanutlin]
Procedure, shortened: as §1

[5] = compound: COc1cc(Nc2ncc3c(n2)-c2ccc(Cl)cc2C(c2c(F)cccc2OC)=NC3)ccc1C(=O)O [alisertib]
Procedure, shortened: as §1

[6] = compound: COc1cc2nc(-c3cc(F)ccc3O)nc(N[C@@H]3CNC[C@H]3C(C)(C)O)c2cc1OC
Procedure, shortened: as §1

[7] = compound: COc1cc2ncnc(Nc3ccc(F)c(Cl)c3)c2cc1OCCCN1CCOCC1 [gefitinib]
Procedure, shortened: as §1

[8] = compound: COc1cccc2cc(-c3nc([C@H]4CC[C@H](C(=O)O)CC4)n4ncnc(N)c34)[nH]c12
Procedure, shortened: as §1

[9] = compound: CS(=O)(=O)CCNCc1ccc(-c2ccc3ncnc(Nc4ccc(OCc5cccc(F)c5)c(Cl)c4)c3c2)o1 [lapatinib]
Procedure, shortened: as §1

[10] = compound: CS(=O)(=O)N1CCN(Cc2cc3nc(-c4cccc5[nH]ncc45)nc(N4CCOCC4)c3s2)CC1 [pictilisib]
Procedure, shortened: as §1

Measured: log2 fold change

LRRC47 (UniProt Q8N1G4)
inactive: [1] 0.105 | [2] -0.09 | [3] 0.034 | [4] -0.029 | [5] -0.046 | [6] -0.003 | [7] -0.002 | [8] 0.03 | [9] 0 | [10] 0.046

LMTK2 (UniProt Q8IWU2)
inactive: [1] 0.039 | [2] -0.055 | [3] -0.139 | [4] 0.05 | [5] -0.053 | [6] 0.043 | [8] -0.06 | [9] 0.095 | [10] 0.043

LRP8 (UniProt E9PP15)
inactive: [1] 0.257 | [2] 0.192 | [3] 0.029 | [4] -0.042 | [5] -0.041 | [6] 0.023 | [8] -0.071 | [9] -0.05

LMNB1 (UniProt P20700)
inactive: [1] -0.034 | [2] 0.131 | [3] 0.053 | [4] 0.14 | [5] -0.075 | [6] -0.09 | [7] -0.002 | [8] 0.064 | [9] 0.087 | [10] 0.005

LONP1 (UniProt P36776)
inactive: [1] -0.006 | [2] -0.02 | [3] -0.017 | [4] -0.025 | [5] -0.049 | [6] 0.02 | [7] 0.004 | [8] 0.015 | [9] -0.038 | [10] 0.036

LAMTOR2 (UniProt Q9Y2Q5)
inactive: [1] -0.029 | [2] -0.075 | [3] -0.062 | [4] 0.077 | [5] 0.03 | [6] -0.123 | [7] 0.061 | [8] -0.127 | [9] 0.005 | [10] -0.141

LASP1 (UniProt Q14847)
inactive: [1] 0.056 | [2] -0.011 | [3] -0.02 | [4] -0.011 | [5] -0.032 | [6] -0.023 | [7] 0.004 | [8] 0.012 | [9] -0.014 | [10] -0.002

LMBRD2 (UniProt Q68DH5)
inactive: [1] -0.031 | [2] -0.095 | [3] 0.108 | [4] -0.012 | [5] -0.035 | [6] 0.025 | [7] 0.082 | [8] -0.021 | [9] 0.026 | [10] 0.057

LACTB2 (UniProt Q53H82)
inactive: [1] -0.015 | [2] -0.013 | [3] -0.02 | [4] 0.008 | [5] -0.031 | [6] -0.004 | [7] 0.017 | [8] 0.034 | [9] -0.02 | [10] 0.027

LMBR1 isoform 3 (UniProt Q8WVP7)
inactive: [1] -0.165 | [2] -0.267 | [3] -0.033 | [4] 0.156 | [5] 0.016 | [6] -0.218 | [8] 0.029 | [9] -0.043 | [10] 0.043

LIG1 (UniProt P18858)
inactive: [1] 0.103 | [2] -0.144 | [3] 0.071 | [4] -0.099 | [5] -0.051 | [6] 0.065 | [7] 0.063 | [8] 0.022 | [9] -0.032 | [10] 0.082

LCP1 (UniProt P13796)
inactive: [1] -0.006 | [2] -0.017 | [3] 0.013 | [4] 0.026 | [5] -0.047 | [6] -0.008 | [7] -0.004 | [8] 0.037 | [9] -0.039 | [10] 0.027

LAS1L (UniProt Q9Y4W2)
inactive: [1] -0.158 | [2] 0.375 | [3] 0.049 | [4] 0.517 | [6] -0.174 | [9] -0.032 | [10] -0.065

LMBRD1 (UniProt Q9NUN5)
active: [2] -0.39
inactive: [3] 0.049 | [4] 0.102 | [5] -0.022 | [6] -0.062 | [7] 0 | [8] 0.059 | [9] -0.026 | [10] -0.03

LRG1 (UniProt P02750)
inactive: [1] -0.011 | [2] -0.199 | [3] -0.043 | [5] 0.024 | [6] -0.062 | [8] 0.042 | [9] 0.189 | [10] 0

LPIN3 isoform 2 (UniProt Q9BQK8)
inactive: [2] 0.006 | [3] 0.011 | [4] -0.075 | [5] 0.022 | [6] 0.111 | [7] -0.029 | [8] -0.01 | [9] 0.022 | [10] 0.147

LGALSL (UniProt Q3ZCW2)
inactive: [1] -0.227 | [5] 1.12 | [8] -0.085

L1TD1 (UniProt Q5T7N2)
inactive: [1] -0.203 | [3] -0.23 | [4] -0.009 | [5] 0 | [8] -0.21 | [10] 0.538

LAMP2 isoform 2 (UniProt P13473)
inactive: [1] -0.049 | [3] 0.022 | [4] 0.017 | [5] -0.105 | [6] -0.027 | [7] -0.039 | [8] 0.09 | [9] -0.104 | [10] 0.075

LCP2 (UniProt Q13094)
inactive: [1] -0.058 | [2] 0.014 | [4] 0.074 | [10] 0.07

LIMK1 (UniProt P53667)
inactive: [1] -0.077 | [2] -0.014 | [6] -0.048 | [9] 0.232

LRP6 (UniProt O75581)
inactive: [1] -0.08 | [2] -0.003 | [3] -0.161 | [4] -0.085 | [6] 0.067 | [9] 0.049 | [10] 0.123

LINS1 (UniProt Q8NG48)
inactive: [1] -0.137 | [2] -0.183 | [4] 0.078 | [5] 0.148 | [8] -0.096

Looked up one by one from the entries so far (2):
LIMK1 (UniProt P53667)
inactive: [1] -0.077 | [2] -0.014 | [6] -0.048 | [9] 0.232

LCP2 (UniProt Q13094)
inactive: [1] -0.058 | [2] 0.014 | [4] 0.074 | [10] 0.07

Next results follow.

LAPTM4A (UniProt Q15012)
inactive: [2] -0.352

LRFN1 (UniProt Q9P244)
inactive: [1] -0.054 | [2] 0.151 | [3] 0.031 | [6] 0.025 | [9] -0.048

LIN37 (UniProt Q96GY3)
inactive: [1] 0.104 | [2] -0.211 | [4] 0.044 | [6] 0.018 | [9] -0.064 | [10] -0.143

LCN2 isoform 2 (UniProt P80188)
inactive: [2] 0.083

LETMD1 isoform 7 (UniProt Q6P1Q0)
inactive: [1] 0 | [2] -0.259 | [4] -0.192 | [5] -0.012 | [6] -0.269 | [7] -0.103 | [8] 0.052 | [9] 0.135 | [10] 0.208

LEG1 (UniProt Q6P5S2)
inactive: [2] 0.233 | [3] 0.044 | [4] 0.022 | [5] 0.073 | [6] 0.124 | [7] 0.049 | [8] -0.26 | [9] -0.076 | [10] -0.033

LANCL3 (UniProt Q6ZV70)
inactive: [1] -0.009 | [2] 0.127 | [3] 0.047 | [4] -0.047 | [7] 0.044

LCMT2 (UniProt O60294)
inactive: [1] -0.223 | [2] -0.082 | [3] 0.005 | [5] -0.168 | [6] 0.374 | [7] 0.156 | [8] 0.113 | [9] 0.013 | [10] 0.107

LGALS8 isoform 2 (UniProt O00214)
inactive: [1] 0.202 | [2] 0.264 | [3] 0.053 | [4] 0.182 | [5] -0.021 | [8] -0.278 | [10] -0.183

LLGL2 (UniProt Q6P1M3)
inactive: [1] -0.067 | [3] -0.203 | [4] 0.024 | [5] -0.089 | [6] 0.099 | [7] -0.059 | [8] -0.189 | [9] 0.041 | [10] 0.052

LRCH4 (UniProt O75427)
inactive: [1] -0.106 | [2] 0.302 | [10] 0.254

LMO4 (UniProt P61968)
inactive: [1] 0.155 | [3] -0.032 | [4] -0.043 | [5] 0.117 | [6] -0.212 | [8] -0.037 | [9] 0.1 | [10] -0.05

LPP (UniProt Q93052)
inactive: [1] -0.394 | [2] -0.623 | [7] 0.247

— the supplement of paper PMC10849652
